Results from patent publication US6518243B1, “Desleucyl glycopeptide antibiotics and methods of making same” (Trustees of Princeton University, priority 1999, dated 2003).

Test system: resistant isolates
Description: The antibacterial activity of each of the compounds against the bacterial strains E. faceium (ATCC 49624), S. epidermidis (ATCC 12228), S. aureus (ATCC 29213), E. faecalis (CL 4877) and E. faecalis (ATCC 292121) was tested. Each of the compounds was screened in a 96 will agar array format.

## CN[C@H](CC(C)C)C(=O)N[C@H]1C(=O)N[C@@H](CC(N)=O)C(=O)N[C@H]2C(=O)N[C@H]3C(=O)N[C@H](C(=O)N[C@@H](C(=O)O)c4cc(O)cc(O)c4-c4cc3ccc4O)[C@H](O)c3ccc(c(Cl)c3)Oc3cc2cc(c3O[C@@H]2O[C@H](CO)[C@@H](O)[C@H](O)[C@H]2O[C@@H]2C[C@@](C)(NCc3ccc(-c4ccc(Cl)cc4)cc3)[C@@H](O)[C@@H](C)O2)Oc2ccc(cc2Cl)[C@H]1O [p-chlorobiphenylvancomycin, p-chlorobiphenyl vancomycin]
  MIC against resistant isolates: approximately 6 ug/ml
